The source of these data is patent publication US20240158445A1, “CYCLIC CELL-PENETRATING PEPTIDES WITH THREE OR MORE HYDROPHOBIC RESIDUES” (Ohio State Innovation Foundation, priority 2021, published 2024).

Protein sequences, listed by entry. Tags and fused reporters are not part of them. Residues count along the entry.
UniProt Q14145, 321-609 limits assumed: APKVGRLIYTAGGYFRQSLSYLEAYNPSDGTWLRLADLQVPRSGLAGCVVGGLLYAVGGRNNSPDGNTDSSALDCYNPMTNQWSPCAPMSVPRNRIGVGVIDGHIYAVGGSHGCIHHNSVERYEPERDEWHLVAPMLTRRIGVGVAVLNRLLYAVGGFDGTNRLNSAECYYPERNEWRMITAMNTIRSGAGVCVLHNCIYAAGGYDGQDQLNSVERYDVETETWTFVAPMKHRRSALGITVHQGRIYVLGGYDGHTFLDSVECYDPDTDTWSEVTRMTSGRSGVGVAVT

Structures were worked out from names or drawings and are uncertain.

Experiment [1] deals with Keap1 (Homo sapiens, UniProt Q14145). Briefly: FP-based competition assay. Conditions: read-out: IC50, binding to the Kelch domain of Keap1; Keap1 40 nM, fluorescein-labeled peptide 2 20 nM, 1 h.
The test system of experiment [2] is Keap1-Nrf2 interaction. Put plainly: Luciferase reporter assay in ARE reporter-HepG2 cells. Particulars: 18 h; for increase of luciferase activity: 310 nM; for maximal induction of luciferase expression: highest concentration tested (5 μM). In general terms: Reporter assays use an easily measured gene product as a stand-in for the process of interest.

As a reminder, the IC50 is the concentration needed to halve the response being measured. Regarding `CC(C)C[C@@H]1NC(=O)[C@H](Cc2ccccc2)NC(=O)[C@H](CCC(=O)O)NC(=O)CNC(=O)[C@H]([C@@H](C)O)NC(=O)[C@H](CCC(=O)O)NC(=O)[C@@H]2CCCN2C(=O)[C@H](CC(=O)O)NC(=O)[C@H](CC(C)C)NC(=O)[C@H](CCC(=O)NCCOCCOCC(=O)NCCCC[C@H](NC(=O)CC[C@@H]2NC(=O)[C@@H](CCCNC(=N)N)NC(=O)[C@H](CCCNC(=N)N)NC(=O)[C@@H](CCCNC(=N)N)NC(=O)[C@H](CCCNC(=N)N)NC(=O)[C@H](Cc3csc4ccccc34)NC(=O)[C@@H](Cc3ccccc3)NC(=O)[C@H](Cc3ccccc3)NC2=O)C(N)=O)NC(=O)CNC1=O`, the IC50 in experiment [1] came out at 22 nM. Further, in experiment [2], the “increase of luciferase activity” value was 2 fold and the “maximal induction of luciferase expression” value turned out to be 4 fold.

As for `CC(C)C[C@@H]1NC(=O)[C@H](Cc2ccccc2)NC(=O)[C@H](CCC(=O)O)NC(=O)CNC(=O)[C@H]([C@@H](C)O)NC(=O)[C@H](CCC(=O)O)NC(=O)[C@@H]2CCCN2C(=O)[C@H](CC(=O)O)NC(=O)[C@H](CC(C)C)NC(=O)[C@H](CCC(=O)NCCOCCOCC(=O)NCCCC[C@H](NC(=O)CC[C@@H]2NC(=O)[C@@H](CCCNC(=N)N)NC(=O)[C@H](CCCNC(=N)N)NC(=O)[C@@H](CCCNC(=N)N)NC(=O)[C@H](CCCNC(=N)N)NC(=O)[C@H](Cc3ccc4ccccc4c3)NC(=O)[C@@H](Cc3ccccc3)NC(=O)[C@H](Cc3ccccc3)NC2=O)C(N)=O)NC(=O)CNC1=O`, in experiment [1], the IC50 turned out to be 18 nM. Moreover, in experiment [2], the “increase of luciferase activity” value is reported as “did not have significant effect” and the “maximal induction of luciferase expression” value stood at 3 fold.
